Results are given in words; binding and its absence hold for the method and conditions named. Binding seen in cells or lysates may run through a third protein. Some results given as binding are weak or reduced against the parent protein; the word gives no strength. For some of these results: Where a sequence is shown, tags or fusion partners need not be part of it.
Experiments:
[1] = target: T1, human ganglioside-induced differentiation associated protein 1 (GDAP1), full-length, untagged (human) (UniProt Q8TB36); assay: co-IP; human and mouse forms co-expressed in HEK-293T; IP with human-specific anti-GDAP1 serum on Protein A-Sepharose, 2 h; lysis buffer 50 mM Tris pH 7.5, 150 mM NaCl, 1 mM EDTA, 1% Triton X-100; immunoblot for the mouse form
T1 sequence: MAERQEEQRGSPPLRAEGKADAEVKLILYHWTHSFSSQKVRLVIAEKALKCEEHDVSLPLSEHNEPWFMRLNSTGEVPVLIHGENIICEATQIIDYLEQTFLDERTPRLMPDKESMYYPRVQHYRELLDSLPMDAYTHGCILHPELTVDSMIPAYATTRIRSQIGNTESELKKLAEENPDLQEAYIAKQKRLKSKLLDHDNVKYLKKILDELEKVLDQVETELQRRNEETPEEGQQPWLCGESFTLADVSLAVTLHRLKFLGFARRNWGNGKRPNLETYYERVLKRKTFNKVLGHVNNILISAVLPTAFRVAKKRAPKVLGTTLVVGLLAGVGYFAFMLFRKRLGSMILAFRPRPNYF

[2] = target: T2, human GDAP1 R120Q (recessively inherited disease mutant, rmGDAP1) (human) (UniProt Q8TB36); assay: as above
T2 sequence: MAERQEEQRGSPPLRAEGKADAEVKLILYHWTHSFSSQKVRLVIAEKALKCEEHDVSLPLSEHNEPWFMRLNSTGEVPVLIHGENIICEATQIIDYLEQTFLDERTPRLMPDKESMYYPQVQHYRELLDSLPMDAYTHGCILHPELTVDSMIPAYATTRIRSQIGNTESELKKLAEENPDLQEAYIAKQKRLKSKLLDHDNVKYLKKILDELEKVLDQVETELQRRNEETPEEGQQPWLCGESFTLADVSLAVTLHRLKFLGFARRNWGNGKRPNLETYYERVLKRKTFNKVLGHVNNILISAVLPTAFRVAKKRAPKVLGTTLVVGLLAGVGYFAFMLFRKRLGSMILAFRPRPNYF

[3] = target: T3, human GDAP1 R310Q (recessively inherited disease mutant, rmGDAP1) (human) (UniProt Q8TB36); assay: as above
T3 sequence: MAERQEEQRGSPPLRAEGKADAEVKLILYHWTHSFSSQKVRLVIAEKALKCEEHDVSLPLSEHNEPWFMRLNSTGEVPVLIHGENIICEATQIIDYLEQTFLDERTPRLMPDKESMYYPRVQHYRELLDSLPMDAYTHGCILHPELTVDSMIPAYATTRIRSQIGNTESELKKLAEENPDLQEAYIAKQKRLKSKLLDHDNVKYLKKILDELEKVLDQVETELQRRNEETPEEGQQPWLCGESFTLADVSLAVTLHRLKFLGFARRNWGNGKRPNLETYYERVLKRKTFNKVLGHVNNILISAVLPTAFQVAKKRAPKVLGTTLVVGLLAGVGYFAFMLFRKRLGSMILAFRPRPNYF

[4] = target: T4, human GDAP1 R120W (dominantly inherited disease mutant, dmGDAP1) (human) (UniProt Q8TB36); assay: as above
T4 sequence: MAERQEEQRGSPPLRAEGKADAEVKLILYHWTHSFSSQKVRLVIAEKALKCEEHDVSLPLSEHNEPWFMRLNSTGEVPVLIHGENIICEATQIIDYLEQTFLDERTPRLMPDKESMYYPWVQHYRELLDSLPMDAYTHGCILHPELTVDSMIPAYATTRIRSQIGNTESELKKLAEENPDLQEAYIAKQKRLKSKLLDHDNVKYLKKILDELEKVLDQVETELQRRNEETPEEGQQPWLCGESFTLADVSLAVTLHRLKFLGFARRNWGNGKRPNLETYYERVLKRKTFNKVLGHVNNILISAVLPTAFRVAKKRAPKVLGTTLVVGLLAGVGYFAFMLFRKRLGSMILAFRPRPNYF

[5] = target: T5, human GDAP1 Q218E (dominantly inherited disease mutant, dmGDAP1) (human) (UniProt Q8TB36); assay: as above
T5 sequence: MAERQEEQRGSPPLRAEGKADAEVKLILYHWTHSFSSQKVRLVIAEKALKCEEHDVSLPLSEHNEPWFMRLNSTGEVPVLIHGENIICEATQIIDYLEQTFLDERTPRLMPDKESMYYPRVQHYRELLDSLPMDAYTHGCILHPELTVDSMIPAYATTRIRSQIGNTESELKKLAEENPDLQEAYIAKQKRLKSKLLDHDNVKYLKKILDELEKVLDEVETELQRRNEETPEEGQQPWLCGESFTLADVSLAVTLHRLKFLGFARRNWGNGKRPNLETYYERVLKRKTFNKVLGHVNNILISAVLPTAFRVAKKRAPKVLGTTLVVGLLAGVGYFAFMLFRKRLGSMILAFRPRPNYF

[6] = target: T6, mouse Gdap1, full-length, untagged (mouse) (UniProt O88741); assay: co-IP; human and mouse forms co-expressed in HEK-293T; IP with murine-specific Gdap1 antibody on Protein A-Sepharose; lysis buffer 50 mM Tris pH 7.5, 150 mM NaCl, 1 mM EDTA, 1% Triton X-100; immunoblot for the human form
T6 sequence: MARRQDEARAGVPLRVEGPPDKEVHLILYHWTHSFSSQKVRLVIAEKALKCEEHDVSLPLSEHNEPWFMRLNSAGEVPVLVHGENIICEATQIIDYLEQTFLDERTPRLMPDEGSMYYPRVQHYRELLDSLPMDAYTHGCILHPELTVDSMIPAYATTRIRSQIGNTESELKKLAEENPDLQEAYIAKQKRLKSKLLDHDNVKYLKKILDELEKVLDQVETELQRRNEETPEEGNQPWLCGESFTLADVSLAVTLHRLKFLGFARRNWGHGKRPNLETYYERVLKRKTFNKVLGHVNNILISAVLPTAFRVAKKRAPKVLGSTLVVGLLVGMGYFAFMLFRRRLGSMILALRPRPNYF

[7] = target: T7, human GDAP1 T318X (truncation lacking the TMD) (human) (UniProt Q8TB36); assay: co-IP; human and mouse forms co-expressed in HEK-293T; IP with human-specific anti-GDAP1 serum on Protein A-Sepharose, 2 h; lysis buffer 50 mM Tris pH 7.5, 150 mM NaCl, 1 mM EDTA, 1% Triton X-100; immunoblot for the mouse form
T7 sequence: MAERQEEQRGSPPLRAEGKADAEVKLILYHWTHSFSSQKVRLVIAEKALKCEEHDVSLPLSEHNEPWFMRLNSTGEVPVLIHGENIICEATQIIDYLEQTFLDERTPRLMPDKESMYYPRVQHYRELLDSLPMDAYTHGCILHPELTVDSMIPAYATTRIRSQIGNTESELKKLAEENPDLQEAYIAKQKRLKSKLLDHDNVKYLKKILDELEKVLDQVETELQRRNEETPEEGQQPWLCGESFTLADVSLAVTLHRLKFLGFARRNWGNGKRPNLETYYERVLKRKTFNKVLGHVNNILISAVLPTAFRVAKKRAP

B1: mouse Gdap1, full-length, untagged (protein, UniProt O88741 1-358)
chain: MARRQDEARAGVPLRVEGPPDKEVHLILYHWTHSFSSQKVRLVIAEKALKCEEHDVSLPLSEHNEPWFMRLNSAGEVPVLVHGENIICEATQIIDYLEQTFLDERTPRLMPDEGSMYYPRVQHYRELLDSLPMDAYTHGCILHPELTVDSMIPAYATTRIRSQIGNTESELKKLAEENPDLQEAYIAKQKRLKSKLLDHDNVKYLKKILDELEKVLDQVETELQRRNEETPEEGNQPWLCGESFTLADVSLAVTLHRLKFLGFARRNWGHGKRPNLETYYERVLKRKTFNKVLGHVNNILISAVLPTAFRVAKKRAPKVLGSTLVVGLLVGMGYFAFMLFRRRLGSMILALRPRPNYF
- binding [1]: binds

B2: mouse Gdap1 R120Q (mouse isoform corresponding to the human disease mutant) (protein, UniProt O88741 1-358)
chain: MARRQDEARAGVPLRVEGPPDKEVHLILYHWTHSFSSQKVRLVIAEKALKCEEHDVSLPLSEHNEPWFMRLNSAGEVPVLVHGENIICEATQIIDYLEQTFLDERTPRLMPDEGSMYYPQVQHYRELLDSLPMDAYTHGCILHPELTVDSMIPAYATTRIRSQIGNTESELKKLAEENPDLQEAYIAKQKRLKSKLLDHDNVKYLKKILDELEKVLDQVETELQRRNEETPEEGNQPWLCGESFTLADVSLAVTLHRLKFLGFARRNWGHGKRPNLETYYERVLKRKTFNKVLGHVNNILISAVLPTAFRVAKKRAPKVLGSTLVVGLLVGMGYFAFMLFRRRLGSMILALRPRPNYF
- binding [2]: binds

B3: mouse Gdap1 R310Q (mouse isoform corresponding to the human disease mutant) (protein, UniProt O88741 1-358)
chain: MARRQDEARAGVPLRVEGPPDKEVHLILYHWTHSFSSQKVRLVIAEKALKCEEHDVSLPLSEHNEPWFMRLNSAGEVPVLVHGENIICEATQIIDYLEQTFLDERTPRLMPDEGSMYYPRVQHYRELLDSLPMDAYTHGCILHPELTVDSMIPAYATTRIRSQIGNTESELKKLAEENPDLQEAYIAKQKRLKSKLLDHDNVKYLKKILDELEKVLDQVETELQRRNEETPEEGNQPWLCGESFTLADVSLAVTLHRLKFLGFARRNWGHGKRPNLETYYERVLKRKTFNKVLGHVNNILISAVLPTAFQVAKKRAPKVLGSTLVVGLLVGMGYFAFMLFRRRLGSMILALRPRPNYF
- binding [3]: binds

B4: mouse Gdap1 R120W (mouse isoform corresponding to the human disease mutant) (protein, UniProt O88741 1-358)
chain: MARRQDEARAGVPLRVEGPPDKEVHLILYHWTHSFSSQKVRLVIAEKALKCEEHDVSLPLSEHNEPWFMRLNSAGEVPVLVHGENIICEATQIIDYLEQTFLDERTPRLMPDEGSMYYPWVQHYRELLDSLPMDAYTHGCILHPELTVDSMIPAYATTRIRSQIGNTESELKKLAEENPDLQEAYIAKQKRLKSKLLDHDNVKYLKKILDELEKVLDQVETELQRRNEETPEEGNQPWLCGESFTLADVSLAVTLHRLKFLGFARRNWGHGKRPNLETYYERVLKRKTFNKVLGHVNNILISAVLPTAFRVAKKRAPKVLGSTLVVGLLVGMGYFAFMLFRRRLGSMILALRPRPNYF
- binding [4]: binds

B5: mouse Gdap1 Q218E (mouse isoform corresponding to the human disease mutant) (protein, UniProt O88741 1-358)
chain: MARRQDEARAGVPLRVEGPPDKEVHLILYHWTHSFSSQKVRLVIAEKALKCEEHDVSLPLSEHNEPWFMRLNSAGEVPVLVHGENIICEATQIIDYLEQTFLDERTPRLMPDEGSMYYPRVQHYRELLDSLPMDAYTHGCILHPELTVDSMIPAYATTRIRSQIGNTESELKKLAEENPDLQEAYIAKQKRLKSKLLDHDNVKYLKKILDELEKVLDEVETELQRRNEETPEEGNQPWLCGESFTLADVSLAVTLHRLKFLGFARRNWGHGKRPNLETYYERVLKRKTFNKVLGHVNNILISAVLPTAFRVAKKRAPKVLGSTLVVGLLVGMGYFAFMLFRRRLGSMILALRPRPNYF
- binding [5]: binds

B6: human ganglioside-induced differentiation associated protein 1 (GDAP1), full-length, untagged (protein, UniProt Q8TB36 1-358)
chain: MAERQEEQRGSPPLRAEGKADAEVKLILYHWTHSFSSQKVRLVIAEKALKCEEHDVSLPLSEHNEPWFMRLNSTGEVPVLIHGENIICEATQIIDYLEQTFLDERTPRLMPDKESMYYPRVQHYRELLDSLPMDAYTHGCILHPELTVDSMIPAYATTRIRSQIGNTESELKKLAEENPDLQEAYIAKQKRLKSKLLDHDNVKYLKKILDELEKVLDQVETELQRRNEETPEEGQQPWLCGESFTLADVSLAVTLHRLKFLGFARRNWGNGKRPNLETYYERVLKRKTFNKVLGHVNNILISAVLPTAFRVAKKRAPKVLGTTLVVGLLAGVGYFAFMLFRKRLGSMILAFRPRPNYF
- binding [6]: binds

B7: mouse Gdap1 T318X (truncation lacking the TMD) (domain or fragment, UniProt O88741 1-317)
chain: MARRQDEARAGVPLRVEGPPDKEVHLILYHWTHSFSSQKVRLVIAEKALKCEEHDVSLPLSEHNEPWFMRLNSAGEVPVLVHGENIICEATQIIDYLEQTFLDERTPRLMPDEGSMYYPRVQHYRELLDSLPMDAYTHGCILHPELTVDSMIPAYATTRIRSQIGNTESELKKLAEENPDLQEAYIAKQKRLKSKLLDHDNVKYLKKILDELEKVLDQVETELQRRNEETPEEGNQPWLCGESFTLADVSLAVTLHRLKFLGFARRNWGHGKRPNLETYYERVLKRKTFNKVLGHVNNILISAVLPTAFRVAKKRAP
- binding [7]: binds

Source: publication PMC5107993, “Glutathione-conjugating and membrane-remodeling activity of GDAP1 relies on amphipathic C-terminal domain” (Scientific Reports, 2016)
